# According to the supplement of paper PMC10849652:
# Protein sequences, listed by entry. Tags and fused reporters are not part of them. Lines headed by an entry give the natural chain unless they say otherwise; changes in a name come on top.
# UniProt P30405: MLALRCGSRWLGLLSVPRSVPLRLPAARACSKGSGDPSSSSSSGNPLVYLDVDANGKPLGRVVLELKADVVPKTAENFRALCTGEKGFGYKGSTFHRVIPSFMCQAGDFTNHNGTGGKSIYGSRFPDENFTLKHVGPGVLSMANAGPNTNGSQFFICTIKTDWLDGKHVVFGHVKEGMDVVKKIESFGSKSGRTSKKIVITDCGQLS
# UniProt Q15054: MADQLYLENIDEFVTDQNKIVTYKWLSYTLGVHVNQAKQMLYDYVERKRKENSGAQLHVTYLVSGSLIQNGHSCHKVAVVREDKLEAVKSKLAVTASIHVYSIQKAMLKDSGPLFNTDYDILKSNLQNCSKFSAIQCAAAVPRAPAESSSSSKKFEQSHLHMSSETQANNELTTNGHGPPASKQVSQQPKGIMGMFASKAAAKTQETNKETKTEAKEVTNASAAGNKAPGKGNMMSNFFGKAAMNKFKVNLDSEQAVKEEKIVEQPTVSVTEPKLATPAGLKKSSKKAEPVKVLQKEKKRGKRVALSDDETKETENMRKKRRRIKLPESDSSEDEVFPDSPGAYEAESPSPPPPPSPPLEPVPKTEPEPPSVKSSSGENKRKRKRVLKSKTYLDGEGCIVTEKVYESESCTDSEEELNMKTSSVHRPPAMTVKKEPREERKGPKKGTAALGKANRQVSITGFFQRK
# UniProt Q96HA1, whole entry, looked up: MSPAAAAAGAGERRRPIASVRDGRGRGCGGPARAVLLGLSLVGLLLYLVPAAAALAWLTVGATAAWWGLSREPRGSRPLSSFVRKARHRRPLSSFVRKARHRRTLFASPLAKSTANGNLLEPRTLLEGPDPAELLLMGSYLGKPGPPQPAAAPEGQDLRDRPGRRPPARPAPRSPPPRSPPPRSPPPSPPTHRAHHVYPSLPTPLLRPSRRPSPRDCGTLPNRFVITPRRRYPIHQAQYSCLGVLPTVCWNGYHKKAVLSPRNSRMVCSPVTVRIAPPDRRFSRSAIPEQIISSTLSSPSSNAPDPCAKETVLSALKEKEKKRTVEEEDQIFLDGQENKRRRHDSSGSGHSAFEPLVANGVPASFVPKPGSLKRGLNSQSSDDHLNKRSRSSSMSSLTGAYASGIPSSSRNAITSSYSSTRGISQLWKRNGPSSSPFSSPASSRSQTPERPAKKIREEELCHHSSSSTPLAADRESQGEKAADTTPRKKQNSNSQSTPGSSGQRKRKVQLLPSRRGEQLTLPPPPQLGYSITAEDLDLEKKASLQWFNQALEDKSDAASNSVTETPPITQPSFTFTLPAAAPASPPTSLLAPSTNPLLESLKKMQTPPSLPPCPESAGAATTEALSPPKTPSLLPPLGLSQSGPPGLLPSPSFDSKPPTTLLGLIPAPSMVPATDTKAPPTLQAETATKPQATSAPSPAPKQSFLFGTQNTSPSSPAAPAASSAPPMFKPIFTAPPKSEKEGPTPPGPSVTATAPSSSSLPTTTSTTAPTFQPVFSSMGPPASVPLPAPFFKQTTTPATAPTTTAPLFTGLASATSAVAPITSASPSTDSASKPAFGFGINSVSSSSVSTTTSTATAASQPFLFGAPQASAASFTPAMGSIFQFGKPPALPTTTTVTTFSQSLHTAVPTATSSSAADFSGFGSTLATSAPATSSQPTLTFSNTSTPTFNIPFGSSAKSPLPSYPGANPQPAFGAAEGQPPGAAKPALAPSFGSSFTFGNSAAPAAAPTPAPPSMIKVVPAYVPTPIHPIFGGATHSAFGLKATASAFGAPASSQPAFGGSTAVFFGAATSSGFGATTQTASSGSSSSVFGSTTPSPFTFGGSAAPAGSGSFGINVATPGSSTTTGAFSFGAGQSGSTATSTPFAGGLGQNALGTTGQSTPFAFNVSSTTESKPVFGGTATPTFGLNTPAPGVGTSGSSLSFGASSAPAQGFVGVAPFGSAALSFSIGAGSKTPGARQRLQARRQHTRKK
# UniProt Q96AD5: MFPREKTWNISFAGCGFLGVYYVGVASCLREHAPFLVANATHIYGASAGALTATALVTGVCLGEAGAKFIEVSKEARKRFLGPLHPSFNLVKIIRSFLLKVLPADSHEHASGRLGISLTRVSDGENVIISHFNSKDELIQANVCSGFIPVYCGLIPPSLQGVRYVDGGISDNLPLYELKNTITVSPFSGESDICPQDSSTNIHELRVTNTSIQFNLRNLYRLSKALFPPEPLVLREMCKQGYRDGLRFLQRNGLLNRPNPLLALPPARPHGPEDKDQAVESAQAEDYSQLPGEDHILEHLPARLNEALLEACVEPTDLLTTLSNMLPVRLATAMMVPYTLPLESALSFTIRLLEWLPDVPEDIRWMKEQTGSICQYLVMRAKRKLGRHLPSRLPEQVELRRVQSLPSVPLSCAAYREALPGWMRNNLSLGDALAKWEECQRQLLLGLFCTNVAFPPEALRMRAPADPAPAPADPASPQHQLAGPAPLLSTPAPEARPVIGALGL
# UniProt P0CAP2, whole entry, looked up: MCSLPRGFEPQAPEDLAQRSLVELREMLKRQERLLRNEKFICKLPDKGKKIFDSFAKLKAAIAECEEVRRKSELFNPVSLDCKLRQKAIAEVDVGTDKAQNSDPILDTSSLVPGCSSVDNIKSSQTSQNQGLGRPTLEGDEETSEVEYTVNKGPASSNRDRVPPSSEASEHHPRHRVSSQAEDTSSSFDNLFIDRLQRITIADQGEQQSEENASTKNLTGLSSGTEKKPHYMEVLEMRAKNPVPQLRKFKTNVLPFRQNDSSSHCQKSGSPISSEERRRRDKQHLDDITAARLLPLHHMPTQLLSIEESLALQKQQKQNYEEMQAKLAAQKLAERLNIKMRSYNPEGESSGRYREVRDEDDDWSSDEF
# UniProt Q08752, whole entry, looked up: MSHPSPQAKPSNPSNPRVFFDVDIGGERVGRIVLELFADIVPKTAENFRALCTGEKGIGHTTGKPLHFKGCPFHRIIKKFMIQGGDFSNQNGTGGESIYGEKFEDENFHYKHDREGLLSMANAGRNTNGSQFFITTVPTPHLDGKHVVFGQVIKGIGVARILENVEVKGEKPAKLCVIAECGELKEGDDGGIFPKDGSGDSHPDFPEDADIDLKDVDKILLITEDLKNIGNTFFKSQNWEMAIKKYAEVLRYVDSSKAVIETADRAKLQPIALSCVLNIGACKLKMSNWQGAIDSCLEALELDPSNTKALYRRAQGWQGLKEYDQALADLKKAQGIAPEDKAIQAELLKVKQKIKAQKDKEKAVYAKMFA
# UniProt P55058, whole entry, looked up: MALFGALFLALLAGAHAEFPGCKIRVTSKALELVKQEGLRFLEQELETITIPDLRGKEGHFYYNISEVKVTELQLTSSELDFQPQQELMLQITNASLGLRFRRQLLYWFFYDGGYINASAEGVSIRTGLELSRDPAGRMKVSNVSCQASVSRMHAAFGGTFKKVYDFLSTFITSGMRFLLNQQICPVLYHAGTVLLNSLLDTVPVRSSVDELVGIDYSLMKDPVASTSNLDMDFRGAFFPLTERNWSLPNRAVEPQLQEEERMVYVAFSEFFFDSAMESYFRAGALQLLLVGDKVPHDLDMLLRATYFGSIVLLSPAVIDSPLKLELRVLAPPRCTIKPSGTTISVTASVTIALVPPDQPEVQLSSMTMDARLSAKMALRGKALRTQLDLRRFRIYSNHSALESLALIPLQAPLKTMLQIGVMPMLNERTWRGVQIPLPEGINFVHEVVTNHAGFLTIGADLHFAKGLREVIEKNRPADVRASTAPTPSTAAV
# UniProt Q8NBL1: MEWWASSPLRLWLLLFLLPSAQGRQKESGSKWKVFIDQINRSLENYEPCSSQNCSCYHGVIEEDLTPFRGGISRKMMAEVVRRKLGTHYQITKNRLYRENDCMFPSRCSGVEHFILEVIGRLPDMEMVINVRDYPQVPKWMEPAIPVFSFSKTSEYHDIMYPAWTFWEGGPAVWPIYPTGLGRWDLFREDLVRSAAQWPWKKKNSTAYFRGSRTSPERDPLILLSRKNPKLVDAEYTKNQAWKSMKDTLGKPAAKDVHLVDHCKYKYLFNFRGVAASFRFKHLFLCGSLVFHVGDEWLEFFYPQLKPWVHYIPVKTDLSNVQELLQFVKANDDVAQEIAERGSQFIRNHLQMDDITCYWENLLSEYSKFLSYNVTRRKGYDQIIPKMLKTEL
# UniProt P0CG38, whole entry, looked up: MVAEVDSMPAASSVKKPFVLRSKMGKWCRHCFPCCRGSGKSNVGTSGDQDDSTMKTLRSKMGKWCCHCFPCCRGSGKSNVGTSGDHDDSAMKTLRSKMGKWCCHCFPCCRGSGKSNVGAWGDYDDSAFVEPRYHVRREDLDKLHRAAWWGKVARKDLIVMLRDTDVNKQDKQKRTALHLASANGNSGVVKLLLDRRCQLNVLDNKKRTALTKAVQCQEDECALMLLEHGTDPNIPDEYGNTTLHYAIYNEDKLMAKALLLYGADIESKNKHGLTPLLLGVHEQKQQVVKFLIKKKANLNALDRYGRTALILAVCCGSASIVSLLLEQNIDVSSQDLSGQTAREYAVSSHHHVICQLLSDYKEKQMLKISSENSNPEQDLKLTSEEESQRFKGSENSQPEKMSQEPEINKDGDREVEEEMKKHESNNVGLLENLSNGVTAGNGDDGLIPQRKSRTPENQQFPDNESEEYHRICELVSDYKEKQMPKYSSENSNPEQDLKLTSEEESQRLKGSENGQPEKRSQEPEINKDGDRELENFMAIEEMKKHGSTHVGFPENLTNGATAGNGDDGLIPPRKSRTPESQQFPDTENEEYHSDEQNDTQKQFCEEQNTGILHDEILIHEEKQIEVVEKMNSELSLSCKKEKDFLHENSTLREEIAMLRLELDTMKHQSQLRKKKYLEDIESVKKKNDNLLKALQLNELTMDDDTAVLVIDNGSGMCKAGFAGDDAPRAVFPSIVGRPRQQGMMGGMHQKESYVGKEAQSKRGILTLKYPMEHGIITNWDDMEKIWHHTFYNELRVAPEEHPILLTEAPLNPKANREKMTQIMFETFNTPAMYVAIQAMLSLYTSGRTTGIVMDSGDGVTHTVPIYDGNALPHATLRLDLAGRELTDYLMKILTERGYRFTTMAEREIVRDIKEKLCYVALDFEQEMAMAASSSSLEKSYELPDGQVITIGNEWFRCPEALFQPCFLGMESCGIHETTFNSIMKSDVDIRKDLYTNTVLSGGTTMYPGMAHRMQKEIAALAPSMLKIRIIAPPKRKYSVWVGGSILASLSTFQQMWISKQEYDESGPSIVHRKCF
# UniProt Q9Y244: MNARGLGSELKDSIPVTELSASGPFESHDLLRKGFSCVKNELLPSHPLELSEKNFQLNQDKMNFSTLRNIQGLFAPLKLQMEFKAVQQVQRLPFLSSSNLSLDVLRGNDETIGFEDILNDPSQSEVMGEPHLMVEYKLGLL
# UniProt Q6EEV4: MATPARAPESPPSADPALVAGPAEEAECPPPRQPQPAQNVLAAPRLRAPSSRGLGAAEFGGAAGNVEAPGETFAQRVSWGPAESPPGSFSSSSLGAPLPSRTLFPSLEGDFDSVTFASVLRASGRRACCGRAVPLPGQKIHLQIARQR
# UniProt Q9H307: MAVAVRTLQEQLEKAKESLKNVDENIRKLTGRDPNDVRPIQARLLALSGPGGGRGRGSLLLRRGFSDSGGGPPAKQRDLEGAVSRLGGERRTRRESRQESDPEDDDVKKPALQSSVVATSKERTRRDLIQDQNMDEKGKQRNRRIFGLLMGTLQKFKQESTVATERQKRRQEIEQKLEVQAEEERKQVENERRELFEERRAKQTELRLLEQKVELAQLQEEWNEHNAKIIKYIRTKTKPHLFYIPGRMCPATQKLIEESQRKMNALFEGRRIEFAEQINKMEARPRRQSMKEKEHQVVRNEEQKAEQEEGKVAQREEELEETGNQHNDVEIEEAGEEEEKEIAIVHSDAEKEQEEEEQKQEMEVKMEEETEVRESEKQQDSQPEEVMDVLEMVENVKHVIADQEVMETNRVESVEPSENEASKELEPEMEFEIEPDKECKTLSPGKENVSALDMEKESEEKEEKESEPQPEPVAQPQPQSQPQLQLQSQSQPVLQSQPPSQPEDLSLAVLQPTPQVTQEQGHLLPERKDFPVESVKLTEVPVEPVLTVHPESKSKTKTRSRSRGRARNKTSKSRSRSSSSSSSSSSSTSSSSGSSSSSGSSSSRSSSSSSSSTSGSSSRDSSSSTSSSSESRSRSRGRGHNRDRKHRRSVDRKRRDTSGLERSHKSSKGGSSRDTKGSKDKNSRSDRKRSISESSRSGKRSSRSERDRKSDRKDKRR
# The list shows a part of the results.
# Columns and labels:
# Test in all cases: log2 fold change, soluble protein after heating vs DMSO (PISA); higher = thermal stabilisation; K562 cells, 10 uM, 30 min; active = over 0.2 and 3.5 SD of the protein, either way, in both replicates (recomputed)
# [1] = compound: CS(=O)(=O)c1ccc(-c2cnc(N)c(C(=O)Nc3ccccc3)n2)cc1
# Procedure, shortened: (§1)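 Quantification of soluble protein used TMTpro 16plex LC-MS/MS, with channel sums equalised. Samples were the supernatant after 21,000xg for 90 min of pooled aliquots from K562 cells (2×10^6 cells/mL) treated with 10 μM compound for 30 min, heated for 3 min over 48°C-58°C, and extracted in PBS with 0.5% NP-40 at 4°C. Values, from duplicates, describe thermal stability against control samples on a log2 fold-change scale.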
# crizotinib = compound: C[C@@H](Oc1cc(-c2cnn(C3CCNCC3)c2)cnc1N)c1c(Cl)ccc(F)c1Cl [crizotinib]
# Procedure, shortened: as §1
# [2] = compound: C[C@@H]1COCCN1C2=NC(=NC(=C2)C3(CC3)S(=O)(=O)C)C4=C5C=CNC5=CC=C4
# Procedure, shortened: as §1
# [3] = compound: C[C@H](C1=CC=C(C=C1)C(=O)NC2=C3C=CNC3=NC=C2)N
# Procedure, shortened: as §1
# duvelisib = compound: C[C@H](Nc1ncnc2nc[nH]c12)c1cc2cccc(Cl)c2c(=O)n1-c1ccccc1 [duvelisib]
# Procedure, shortened: as §1
# gandotinib = compound: Cc1cc(Nc2cc(CN3CCOCC3)c3nc(C)c(Cc4ccc(Cl)cc4F)n3n2)n[nH]1 [gandotinib]
# Procedure, shortened: as §1
# tozasertib = compound: Cc1cc(Nc2cc(N3CCN(C)CC3)nc(Sc3ccc(NC(=O)C4CC4)cc3)n2)n[nH]1 [tozasertib]
# Procedure, shortened: as §1
# [4] = compound: Cc1cc(SCc2sc(-c3ccc(C(F)(F)F)cc3)nc2C)ccc1OCC(=O)O
# Procedure, shortened: as §1
# doramapimod = compound: Cc1ccc(-n2nc(C(C)(C)C)cc2NC(=O)Nc2ccc(OCCN3CCOCC3)c3ccccc23)cc1 [doramapimod]
# Procedure, shortened: as §1
# ispinesib = compound: Cc1ccc(C(=O)N(CCCN)[C@@H](c2nc3cc(Cl)ccc3c(=O)n2Cc2ccccc2)C(C)C)cc1 [ispinesib]
# Procedure, shortened: as §1
Target,log2 fold change [1],log2 fold change (crizotinib),log2 fold change [2],log2 fold change [3],log2 fold change (duvelisib),log2 fold change (gandotinib),log2 fold change (tozasertib),log2 fold change [4],log2 fold change (doramapimod),log2 fold change (ispinesib)
PPIF (UniProt P30405),inactive: 0.023,inactive: 0.099,inactive: 0.037,inactive: -0.104,inactive: 0.068,inactive: -0.026,inactive: -0.036,inactive: 0.03,inactive: -0.078,inactive: 0.056
POLR2B (UniProt P30876),inactive: 0.041,inactive: 0.032,inactive: 0.023,inactive: 0.18,,active: 0.26,,inactive: 0.03,inactive: -0.014,inactive: -0.048
POLD1 (UniProt P28340),inactive: 0.019,inactive: -0.042,inactive: 0.041,inactive: -0.025,,inactive: 0.036,,inactive: 0.046,inactive: -0.018,inactive: -0.01
POLD3 (UniProt Q15054),inactive: 0.177,inactive: -0.055,inactive: 0.155,inactive: -0.076,,inactive: -0.049,,inactive: 0.008,inactive: -0.012,inactive: -0.123
POM121 (UniProt Q96HA1),inactive: 0.024,inactive: -0.139,inactive: -0.016,inactive: 0.084,,inactive: -0.043,,inactive: 0.008,inactive: 0.134,active: -0.307
PNPLA2 (UniProt Q96AD5),inactive: 0.048,inactive: -0.055,inactive: 0.094,inactive: 0.095,,inactive: -0.303,,inactive: -0.065,inactive: 0.046,active: -0.395
POLR2M (UniProt P0CAP2),inactive: 0.028,inactive: 0.074,inactive: 0.097,inactive: 0.044,,inactive: 0.141,,inactive: 0.012,inactive: 0.013,inactive: -0.055
PPID (UniProt Q08752),inactive: 0.055,inactive: -0.102,inactive: 0.046,inactive: 0.071,,inactive: -0.145,,inactive: 0.088,inactive: 0.007,inactive: -0.08
POLR2G (UniProt P62487),inactive: 0.006,inactive: 0.257,inactive: 0.111,inactive: 0.125,,inactive: 0.191,,inactive: -0.026,inactive: -0.016,inactive: 0.035
PLTP (UniProt P55058),inactive: -0.098,inactive: 0.165,inactive: -0.082,inactive: 0.195,inactive: 0.019,inactive: 0.038,,inactive: 0.155,inactive: -0.097,
POGLUT1 (UniProt Q8NBL1),inactive: 0.064,inactive: 0.059,inactive: 0,inactive: 0.241,,inactive: -0.011,,inactive: 0.037,inactive: 0.029,inactive: 0.087
POTEI (UniProt P0CG38),inactive: -0.009,inactive: 0.109,inactive: 0.241,inactive: -0.096,,inactive: -0.019,,inactive: -0.021,active: -0.739,inactive: 0.131
POMP (UniProt Q9Y244),inactive: -0.086,inactive: -0.059,inactive: -0.023,inactive: -0.076,,inactive: 0.027,,inactive: -0.245,inactive: -0.143,inactive: 0.108
POLR2A (UniProt P24928),inactive: 0.027,inactive: 0.231,inactive: 0.049,inactive: 0.21,,active: 0.321,,inactive: 0.023,inactive: -0.009,inactive: 0.006
POLR2M (UniProt Q6EEV4),inactive: -0.03,inactive: -0.021,inactive: 0.16,inactive: -0.078,,,,inactive: -0.061,inactive: -0.04,
PNN (UniProt Q9H307),inactive: -0.043,inactive: -0.154,inactive: 0.022,inactive: -0.05,,inactive: 0.012,,inactive: -0.003,inactive: -0.032,inactive: -0.08

# At a glance, some entries already given.
Target,log2 fold change [1],log2 fold change (crizotinib),log2 fold change [2],log2 fold change [3],log2 fold change (duvelisib),log2 fold change (gandotinib),log2 fold change (tozasertib),log2 fold change [4],log2 fold change (doramapimod),log2 fold change (ispinesib)
POM121 (UniProt Q96HA1),inactive: 0.024,inactive: -0.139,inactive: -0.016,inactive: 0.084,,inactive: -0.043,,inactive: 0.008,inactive: 0.134,active: -0.307
PNPLA2 (UniProt Q96AD5),inactive: 0.048,inactive: -0.055,inactive: 0.094,inactive: 0.095,,inactive: -0.303,,inactive: -0.065,inactive: 0.046,active: -0.395
